# About 780 (0.22%) of roughly 360,000 compounds were called active. Inconclusive results, whose numbers are uncertain, are shown with a selection of clear calls. Rule as the data show it: active = inhibition above about 35% (passing the limit was not always enough); inconclusive = no clear call, values can overlap the other calls.
# Test system: Botulinum neurotoxin type F light chain protease (Clostridium botulinum)
# Assay: BoNT/F light chain protease inhibitors, primary screen, biochemical, flow cytometry, MLPCN library (AID 588497); also: plate controls were buffer without enzyme for full effect and enzyme alone for no effect
# Settings: Multiplex microsphere protease cleavage assay, at 10 µM, hits give high values
row,Structure (SMILES),inhibition
1,Cc1cc(C)c2[nH]c(=O)c(CN(Cc3cccs3)C(=S)NCc3ccco3)cc2c1,inactive: -3.7%
2,CCn1c(-c2cc(-c3ccc(OC(C)C)cc3)nc3ccccc23)n[nH]c1=S,inactive: -7.9%
3,CC(NC(=O)c1ccc(Cl)cc1)C1CC2CCC1C2 (centres undefined),inconclusive: -8.8%
4,Cc1cc(C)cc(NC(=O)Nc2ccc(-n3ccc(C(F)(F)F)n3)cc2)c1,inconclusive: 15.4%
5,CNCc1ccccc1Sc1ccc(OC)c(OC)c1,inconclusive: 2.1%
6,CCN(c1ccccc1)S(=O)(=O)c1cccc(C(=O)NCc2ccncc2)c1,inconclusive: -4.7%
7,CCCOc1ccccc1Cn1c(=O)oc2ccccc21,inconclusive: -2.9%
8,Cc1nc2cc(C(=O)N3CCc4ccccc43)ccc2n1-c1ccc(F)c(F)c1,inactive: -0.1%
9,CN(Cc1ccccc1)C(=O)CCS(=O)(=O)c1ccc2c(c1)NC(=O)CS2,inactive: 7.3%
10,COc1ccc(/C=C\c2nc(=O)c3ccccc3o2)cc1,inactive: -0.8%
11,Cc1ccc(-n2c(SCC(N)=O)nnc2-c2ccco2)cc1,inconclusive: -1.8%
12,O=C(c1ccccc1)C1CCN(C(=O)Nc2ccccc2)CC1,inconclusive: -9.5%
13,COc1cc(/C=C2/CC(C)OC2=O)c([N+](=O)[O-])cc1OC (centres undefined),inconclusive: 18.9%
14,O=C(c1csc2ccccc12)N1CCCCCC1,inactive: -1.7%
15,COc1cc(Br)cc(/C=N/NC(=O)Cc2ccccc2)c1O,inconclusive: -32%
16,CC(=O)c1cn(CCOc2ccc(F)cc2)c2ccccc12,inconclusive: 5.7%
17,COc1ccc(/C=N/NC(=O)c2cccs2)c2ccccc12,inconclusive: -61.5%
18,Cc1cc(C(F)(F)F)nn1Cc1n[nH]c(=S)n1-c1ccc(Cl)cc1,inactive: 1%
19,Cc1cc(/C=C2\SC(=O)N(C)C2=O)c(C)n1-c1ccc(O)cc1,inconclusive: -40%
20,CC(C)(C)c1ccc(OCC(O)CN2CCc3ccccc3C2)cc1 (centres undefined),inconclusive: 0.6%
21,CC(C)CCn1cnc2c(oc3nc4c(cc32)CCCC4)c1=O,inconclusive: 81.4%
22,COc1ccc(NC(=O)c2ccc(C)cc2)cc1,inconclusive: 8.9%
23,COc1ccc(-n2nc(C(=O)O)cc2-c2ccccc2)cc1,inconclusive: -4.1%
24,Cc1[nH]c(C)c2c(=O)n(Cc3ccc(Cl)cc3)ncc12,inconclusive: 9.8%

# Not a retest: three of the compounds above.
row,Structure (SMILES),inhibition
9,CN(Cc1ccccc1)C(=O)CCS(=O)(=O)c1ccc2c(c1)NC(=O)CS2,inactive: 7.3%
10,COc1ccc(/C=C\c2nc(=O)c3ccccc3o2)cc1,inactive: -0.8%
11,Cc1ccc(-n2c(SCC(N)=O)nnc2-c2ccco2)cc1,inconclusive: -1.8%

# (listing goes on)

row,Structure (SMILES),inhibition
1,COc1cccc(F)c1C(C[N+](=O)[O-])c1c(N)n(C)c(=O)n(C)c1=O (centres undefined),inactive: -6%
2,c1ccc(CNc2ccccn2)cc1,inconclusive: 2.7%
3,Cc1ccc(SCCC(=O)Nc2nccs2)cc1,inactive: -14.9%
4,O=[N+]([O-])c1ccc(OCC(O)CNCCNc2nccc(C(F)(F)F)n2)cc1 (centres undefined),inconclusive: 10.4%
5,CCCCN(C/C=C/c1ccccc1OC)Cc1ccccc1,inconclusive: 4.2%
6,CC(C)CN1CCN(Cc2c[nH]c3ccccc23)CC1CCO (centres undefined),inconclusive: -8.2%
7,Cc1[nH]n(C)c(=O)c1N=Nc1ccc(S(C)(=O)=O)cc1,inconclusive: -4.4%
8,COc1ccc(CCN(C)C(=O)CN2C(=O)NC3(CCCc4ccccc43)C2=O)cc1OC (centres undefined),inconclusive: -11.7%
9,O=C(Nc1ncc([N+](=O)[O-])s1)c1ccco1,inconclusive: -16.1%
10,COc1ccccc1N1CCN(Cc2ccc(-c3ccccc3[N+](=O)[O-])o2)CC1,inconclusive: -49.3%
11,CCN(CC(=O)NCc1ccc(F)cc1)C(=O)CN1CCN(c2ccc(OC)cc2)CC1,inconclusive: -22.3%
12,O=C(Nc1ccc2c(c1)OCO2)c1cccc(S(=O)(=O)N2CCCC2)c1,inactive: -0.3%
13,O=C1NC(=O)C(c2cn(-c3ccccc3)nc2-c2ccc(F)cc2)N1 (centres undefined),inconclusive: -18%
14,O=S(=O)(Nc1ccccc1Cl)c1ccc(-c2ccccn2)s1,inconclusive: -2.8%
15,O=C(CCCc1ccccc1)Nc1nccs1,inconclusive: 78.4%
16,O=C(O)c1cccc2cccnc12,inconclusive: -6.3%
17,Cc1ncc([N+](=O)[O-])n1S(=O)(=O)c1cc(Cl)ccc1Cl,inconclusive: -18.8%
18,Cc1ccc(-c2c(C(=O)N/N=C/c3sccc3C)nnn2-c2nonc2N)cc1,inactive: 8.2%
19,CCOC(=O)c1nc(-c2ccccc2)sc1C(C)=O,inconclusive: -27%
20,CCOC(=O)c1cc(NC(=O)N2CCCCC2)c(C)nc1C,inconclusive: -24%
21,CCOc1ccccc1NC(=O)Nc1c(C)n(-c2ccccc2)c(=O)n1C,inactive: 1.9%
22,CCOC(=O)c1ccc(NNC(=O)CC)c([N+](=O)[O-])c1,inactive: 2.2%
23,Cn1cnc2cc(NCc3ccccc3O)ccc21,inconclusive: -2.4%
24,Cc1ccc(S(=O)(=O)Nc2cc(C)c(O)c(Sc3n[nH]c(C)n3)c2)cc1,inactive: 7.8%

row,Structure (SMILES),inhibition
1,O=C1NC(=NCc2ccccc2)NC1(c1ccccc1)c1ccccc1,inactive: -6.7%
2,Cc1ccccc1NC(=O)Nc1cc(S(N)(=O)=O)ccc1C,inactive: 2%
3,O=C(Nc1ccc2ccccc2c1)N1CCN(c2ncccc2C(F)(F)F)CC1,inactive: -7.3%
4,Cc1cc2oc(=O)cc(Cn3ccnc3)c2cc1Cl,inconclusive: -30.5%
5,Cc1ccc(OC(C)C(=O)N(Cc2cccs2)C2CCS(=O)(=O)C2)cc1C (centres undefined),inconclusive: 18.3%
6,O=C(COC(=O)c1ccc(O)cc1O)Nc1nnc(-c2ccccc2)o1,inconclusive: -14.3%
7,CCN(CC)c1ccc(/C=C/[N+](=O)[O-])cc1,inactive: 16.8%
8,CN(C)C(=O)Oc1ccc(Br)cc1C(=O)Nc1ccc(F)c(Cl)c1,inconclusive: 13.9%
9,Cc1cccc(C(=O)NNC(=S)NC(=O)c2ccccc2)c1,inconclusive: 23.6%
10,CCOC(=O)CN1C(=O)C(O)=C(C(C)=O)C1c1ccc([N+](=O)[O-])cc1 (centres undefined),inconclusive: -4.7%
11,COc1ccccc1NC(=O)CSc1nnnn1-c1ccccc1OC,inconclusive: 22.5%
12,Cc1cc(-c2c(C(=O)N3CCOCC3)c(C)nn2-c2ccccc2)no1,inconclusive: -20.5%
13,CSc1nnc(-c2ccccc2Cl)o1,inactive: 1%
14,O=C(Nc1ccc(NC(=O)c2ccccc2O)cc1)Nc1ccc(F)cc1F,inconclusive: -0.6%
15,O=C(CC(C(=O)O)c1ccc(Cl)cc1Cl)c1ccc(Cl)cc1 (centres undefined),inconclusive: 6.2%
16,Clc1ccc(-c2ccc(CNCC3CCCO3)o2)cc1 (centres undefined),inconclusive: 18.1%
17,CCOC(=O)c1cc(NC(=O)N(CC)CC)c(C)nc1C,inactive: -3.2%
18,COc1ccc(-n2c(O)c(C=NCc3ccccn3)c3ccccc3c2=O)c(OC)c1,inconclusive: -9.1%
19,COc1cc(S(=O)(=O)N2CCN(c3ccccn3)CC2)ccc1Br,inconclusive: -0.1%
20,O=[n+]1c2c(n([O-])c3cc(F)ccc31)CCCC2,inconclusive: 20%
21,OC(COc1ccccc1F)CN1CCC(Cc2ccccc2)CC1 (centres undefined),inconclusive: -1%
22,CCOC(=O)c1ccc(CN2C(=O)c3ccccc3S2(=O)=O)cc1,inconclusive: 37%
23,CC(C)N(Cc1ccccc1)C(=O)COc1ccccc1,inconclusive: 19.9%
24,CC1(C)Cc2c(sc3ncnc(NN)c23)CO1,inconclusive: -22.4%

row,Structure (SMILES),inhibition
1,Nc1ccc(C(=O)Nc2ccc(Nc3ccncc3)cc2)cc1,inconclusive: -26.9%
2,CCOC(=O)N1CCC(NC(=O)c2cc(C)c3c(C)nn(-c4ccccc4)c3n2)CC1,inactive: 6.8%
3,CCCCCCCCN1C(=O)[C@H](CC(=O)NCCC(C)C)C[C@@]2(C(=O)OC)CCCCC=C12,inactive: -6.6%
4,CCCCNC(=S)N(CCCO)Cc1cc2cc3c(cc2[nH]c1=O)OCCO3,inconclusive: -21%
5,COc1ccc(-c2nc(N)nc(C(F)(F)F)c2-c2ccccc2OC)c(O)c1,inconclusive: -17.7%
6,CN(C)c1cc(-c2ccc(Cl)cc2)oc(=O)c1Cl,inconclusive: 55.2%
7,COc1ccc(Cl)cc1-c1n[nH]c(=S)n1Cc1ccccc1,inconclusive: 1.3%
8,Cc1ccc(SCc2c(C#N)c3ccccc3n2C)cc1,inconclusive: -15.7%
9,COc1ccc(Cc2c(-c3ccccc3)nc3c4ccccc4ccn23)c(C)c1,inactive: 6.5%
10,O=C(Nc1ccccn1)c1ccc(Br)s1,inactive: 18.8%
11,Cc1nc(Cc2nnc(SCC(=O)N(C)c3ccccc3)o2)cs1,inconclusive: -7.5%
12,COc1ccc2c(c1)C(C)CC(C)(C)N2C(=O)CSc1nc2ccccc2s1 (centres undefined),inconclusive: 9.2%
13,CCCCc1cc(=O)oc2cc(C)cc(OCC(=O)N[C@@H](CSCc3ccccc3)C(=O)O)c12,inactive: -5.8%
14,CCCCCc1c(C)nc(N2CCN(Cc3ccc4c(c3)OCO4)CC2)[nH]c1=O,active: 39.2%
15,CCC(C)[C@H](NC(=O)NCc1ccco1)C(=O)OC (some centres undefined),inconclusive: -19.5%
16,O=C(Cn1ccc(C(F)(F)F)n1)NNC(=O)c1ccco1,inactive: 3.7%
17,Nc1nc(SCC(=O)Nc2cc(-c3ccccc3)nn2-c2ccccc2)n[nH]1,active: 40.1%
18,O=C(OCc1ccccc1F)c1cc([N+](=O)[O-])ccc1N1CCOCC1,inconclusive: -0.2%
19,COC(=O)c1cnn(-c2ccc(F)cc2F)c1/C=N/NC(=S)NC(C)(C)C,inconclusive: -28.3%
20,O=C(N/N=C/c1ccsc1)c1cc(O)cc(O)c1,inconclusive: 9.4%
21,Cc1nnc(SCC(=O)NC(C)(C)C)n1NCc1ccc(N(C)C)cc1,inconclusive: 18.7%
22,CCCn1c(=O)c(C(=O)NCCc2ccc(Cl)cc2)c(O)c2ccccc21,inconclusive: -10.7%
